According to US11406720B2, “Fibroblast growth factor receptor 2-specific peptide reagents and methods” (THE REGENTS OF THE UNIVERSITY OF MICHIGAN, priority 2017, dated 2022):

Tested on: human esophageal specimens (SQ, BE, HGD, EAC)
Test: Confocal microscopy staining of sections of human esophagus ex vivo
Type: binding
Conditions: for Pearson's correlation coefficient, co-localization with AF488-labeled anti-FGFR2 antibody: merged images
Protocol: Formalin-fixed sections of human esophageal specimens were deparaffinized, and antigen retrieval was performed using standard methods. Briefly, the sections were incubated in xylene for 3 min 3×, washed with 100% ethanol for 2 min 2×, and washed with 95% ethanol for 2 min 2×. Rehydration was performed by washing in dH2O for 5 min 2×. Antigen unmasking was performed by boiling the slides in 10 mM sodium citrate buffer with 0.05% Tween at pH 6.0, and then maintaining at sub-boiling temperature for 15 min. The slides were cooled for 30 min, and the sections were washed in dH2O for 3 min 3× and in PBS for 5 min. Blocking was performed with DAKO protein blocking agent (X0909, DAKO) for 1 hour at RT. The peptides were incubated at a concentration of 1 μM for 10 min at RT. The sections were washed in PBS for 3 min 3×, and incubated with 1:1000 dilution of monoclonal anti-FGFR2 (Abcam, ab58201) overnight at 4° C.
The sections were then washed in PBS for 5 min 3×. A 1:500 dilution of AF488-labeled secondary antibody (goat anti-mouse) was added to each section and incubated for 30 min at RT. The secondary antibody solution was removed by washing with PBS for 5 min 3×. The sections were then mounted with ProLong Gold reagent containing DAPI (Invitrogen). The mean fluorescence intensities from 3 boxes (dimensions of […]) located completely within the surface epithelium of each specimen were measured. […] Serial sections were processed for routine histology (H&E), and were reviewed by an expert gastrointestinal pathologist (HDA).

For “SRR*-Cy5.5: 12 amino acid sequence SRRPASFRTARE with fluorophore Cy5.5 attached via a GGGSK linker on the C-terminus (C-terminal GGGSK linker and Cy5.5)”, the “Pearson's correlation coefficient, co-localization with AF488-labeled anti-FGFR2 antibody” value (from here on “Pearson's correlation coefficient”) (BE) was 0.54, the “Pearson's correlation coefficient” value (EAC) was 0.59 and the “Pearson's correlation coefficient” value (HGD) was 0.52. For the same substance, the “Pearson's correlation coefficient” value (SQ) was 0.59 and the “overall Pearson's coefficient, fluorescence intensities versus AF488-labeled anti-FGFR2 antibody” value (all specimens of SQ, BE, HGD, EAC) was 0.66.
